# Measured values: the supplement of paper PMC9433722
# Structures can show the parent of a compound that is named as a salt. The list shows a part of the results. Many values rest on one well or one pass, so single values are uncertain.
# Tests used:
# Saos-2 = assay: cell viability (CCK-8) relative to DMSO control (% of control); higher = less cytotoxic; settings: 10 µM; 48 h
# U2OS = assay: as above; settings: 10 µM; 48 h
SMILES,cell viability (Saos-2),cell viability (U2OS)
N=C(NCCCCCCNC(=N)NC(=N)Nc1ccc(Cl)cc1)NC(=N)Nc1ccc(Cl)cc1 [Chlorhexidine Dihydrochloride],52,33
CCCC(=O)O[C@]1(C(=O)COC(C)=O)CC[C@H]2[C@@H]3C[C@H](F)C4=CC(=O)C=C[C@]4(C)[C@@]3(F)[C@@H](O)C[C@@]21C [Difluprednate],116,106
COc1ccc(C[C@@H]2c3cc(OC)c(OC)cc3CC[N@+]2(C)CCC(=O)OCCCCCOC(=O)CC[N@@+]2(C)CCc3cc(OC)c(OC)cc3[C@H]2Cc2ccc(OC)c(OC)c2)cc1OC [Cisatracurium Besylate],96.2,92.8
CNCCC=C1c2ccccc2CCc2ccccc21 [Nortriptyline·HCl],96.8,111
COc1nc(N)nc2c1ncn2[C@@H]1O[C@H](CO)[C@@H](O)[C@@H]1O [Nelarabine],104,109
Cn1nnc2c(C(N)=O)ncn2c1=O [Temozolomide],64.8,106
CC1(C)S[C@@H]2[C@H](NC(=O)COc3ccccc3)C(=O)N2[C@H]1C(=O)O [Penicillin V Potassium],65.6,103
CC(C)(O)c1ccccc1CC[C@@H](SCC1(CC(=O)O)CC1)c1cccc(/C=C/c2ccc3ccc(Cl)cc3n2)c1 [Montelukast·Na],54.1,111
Nc1ccn(C[C@@H](CO)OCP(=O)(O)O)c(=O)n1 [Cidofovir],94.3,90
Clc1ccc(COC(Cn2ccnc2)c2ccc(Cl)cc2Cl)cc1 (stereo not given) [Econazole Nitrate],129,107

# Some of the entries above in a different format.
SMILES | cell viability (Saos-2) | cell viability (U2OS)
CC1(C)S[C@@H]2[C@H](NC(=O)COc3ccccc3)C(=O)N2[C@H]1C(=O)O [Penicillin V Potassium] | 65.6 | 103
CC(C)(O)c1ccccc1CC[C@@H](SCC1(CC(=O)O)CC1)c1cccc(/C=C/c2ccc3ccc(Cl)cc3n2)c1 [Montelukast·Na] | 54.1 | 111
